Experimental data from the supplement of paper PMC10849652.
The list shows a part of the results.

Chains of the proteins cited; added tags and fusions are not shown. Lines headed by an entry give the natural chain unless they say otherwise; changes in a name come on top.
UniProt Q8WU10: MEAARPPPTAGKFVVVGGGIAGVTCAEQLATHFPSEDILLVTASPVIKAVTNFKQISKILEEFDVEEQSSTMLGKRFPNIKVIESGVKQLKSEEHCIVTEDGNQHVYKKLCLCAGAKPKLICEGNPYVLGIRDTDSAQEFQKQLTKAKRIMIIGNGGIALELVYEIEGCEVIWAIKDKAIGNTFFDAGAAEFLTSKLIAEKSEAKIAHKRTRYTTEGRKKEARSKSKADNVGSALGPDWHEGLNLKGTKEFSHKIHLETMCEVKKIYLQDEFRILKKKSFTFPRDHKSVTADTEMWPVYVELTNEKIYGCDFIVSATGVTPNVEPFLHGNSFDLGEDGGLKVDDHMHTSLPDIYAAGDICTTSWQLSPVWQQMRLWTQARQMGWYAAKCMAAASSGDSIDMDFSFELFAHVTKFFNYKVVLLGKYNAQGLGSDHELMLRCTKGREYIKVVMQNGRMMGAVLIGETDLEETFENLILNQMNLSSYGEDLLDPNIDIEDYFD
UniProt Q969Q5: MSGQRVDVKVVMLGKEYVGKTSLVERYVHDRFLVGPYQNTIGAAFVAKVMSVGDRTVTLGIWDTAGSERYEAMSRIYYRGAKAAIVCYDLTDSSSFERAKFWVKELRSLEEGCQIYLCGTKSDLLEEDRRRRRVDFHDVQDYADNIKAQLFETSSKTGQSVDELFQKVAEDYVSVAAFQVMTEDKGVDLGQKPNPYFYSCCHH
UniProt Q15032: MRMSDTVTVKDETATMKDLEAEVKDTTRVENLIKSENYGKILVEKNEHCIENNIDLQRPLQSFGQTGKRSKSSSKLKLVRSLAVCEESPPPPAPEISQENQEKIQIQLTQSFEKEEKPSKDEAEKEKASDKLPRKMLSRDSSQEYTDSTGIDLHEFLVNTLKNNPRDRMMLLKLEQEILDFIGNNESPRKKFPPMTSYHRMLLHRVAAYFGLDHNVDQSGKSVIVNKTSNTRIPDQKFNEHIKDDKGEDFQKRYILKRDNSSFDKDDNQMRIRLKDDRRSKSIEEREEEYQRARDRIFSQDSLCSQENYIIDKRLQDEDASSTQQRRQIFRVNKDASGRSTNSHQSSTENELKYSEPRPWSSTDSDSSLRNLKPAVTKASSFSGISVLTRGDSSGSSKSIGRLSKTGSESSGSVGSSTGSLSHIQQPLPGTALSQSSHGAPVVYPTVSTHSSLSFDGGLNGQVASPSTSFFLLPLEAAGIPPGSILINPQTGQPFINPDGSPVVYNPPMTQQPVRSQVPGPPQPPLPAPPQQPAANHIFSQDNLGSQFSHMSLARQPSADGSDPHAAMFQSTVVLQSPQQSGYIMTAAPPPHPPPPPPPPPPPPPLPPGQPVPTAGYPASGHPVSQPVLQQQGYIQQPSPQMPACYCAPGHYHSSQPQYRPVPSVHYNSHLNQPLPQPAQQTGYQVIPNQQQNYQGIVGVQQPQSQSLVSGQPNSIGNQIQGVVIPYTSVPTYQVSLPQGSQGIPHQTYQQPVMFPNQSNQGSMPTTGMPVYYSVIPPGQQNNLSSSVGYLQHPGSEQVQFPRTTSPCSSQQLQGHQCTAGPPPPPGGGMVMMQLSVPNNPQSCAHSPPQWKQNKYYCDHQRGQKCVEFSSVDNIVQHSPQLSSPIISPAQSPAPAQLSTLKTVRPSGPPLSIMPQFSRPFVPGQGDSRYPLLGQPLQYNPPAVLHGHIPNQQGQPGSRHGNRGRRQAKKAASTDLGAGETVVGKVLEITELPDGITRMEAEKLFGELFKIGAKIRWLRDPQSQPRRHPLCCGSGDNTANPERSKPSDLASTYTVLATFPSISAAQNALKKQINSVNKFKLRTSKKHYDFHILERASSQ
UniProt P61225: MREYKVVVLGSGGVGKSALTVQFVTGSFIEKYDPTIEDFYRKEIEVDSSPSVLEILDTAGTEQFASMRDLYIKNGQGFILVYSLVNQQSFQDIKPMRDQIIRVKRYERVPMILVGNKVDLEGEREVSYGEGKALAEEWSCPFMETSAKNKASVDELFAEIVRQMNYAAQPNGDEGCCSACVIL
UniProt Q6WKZ4: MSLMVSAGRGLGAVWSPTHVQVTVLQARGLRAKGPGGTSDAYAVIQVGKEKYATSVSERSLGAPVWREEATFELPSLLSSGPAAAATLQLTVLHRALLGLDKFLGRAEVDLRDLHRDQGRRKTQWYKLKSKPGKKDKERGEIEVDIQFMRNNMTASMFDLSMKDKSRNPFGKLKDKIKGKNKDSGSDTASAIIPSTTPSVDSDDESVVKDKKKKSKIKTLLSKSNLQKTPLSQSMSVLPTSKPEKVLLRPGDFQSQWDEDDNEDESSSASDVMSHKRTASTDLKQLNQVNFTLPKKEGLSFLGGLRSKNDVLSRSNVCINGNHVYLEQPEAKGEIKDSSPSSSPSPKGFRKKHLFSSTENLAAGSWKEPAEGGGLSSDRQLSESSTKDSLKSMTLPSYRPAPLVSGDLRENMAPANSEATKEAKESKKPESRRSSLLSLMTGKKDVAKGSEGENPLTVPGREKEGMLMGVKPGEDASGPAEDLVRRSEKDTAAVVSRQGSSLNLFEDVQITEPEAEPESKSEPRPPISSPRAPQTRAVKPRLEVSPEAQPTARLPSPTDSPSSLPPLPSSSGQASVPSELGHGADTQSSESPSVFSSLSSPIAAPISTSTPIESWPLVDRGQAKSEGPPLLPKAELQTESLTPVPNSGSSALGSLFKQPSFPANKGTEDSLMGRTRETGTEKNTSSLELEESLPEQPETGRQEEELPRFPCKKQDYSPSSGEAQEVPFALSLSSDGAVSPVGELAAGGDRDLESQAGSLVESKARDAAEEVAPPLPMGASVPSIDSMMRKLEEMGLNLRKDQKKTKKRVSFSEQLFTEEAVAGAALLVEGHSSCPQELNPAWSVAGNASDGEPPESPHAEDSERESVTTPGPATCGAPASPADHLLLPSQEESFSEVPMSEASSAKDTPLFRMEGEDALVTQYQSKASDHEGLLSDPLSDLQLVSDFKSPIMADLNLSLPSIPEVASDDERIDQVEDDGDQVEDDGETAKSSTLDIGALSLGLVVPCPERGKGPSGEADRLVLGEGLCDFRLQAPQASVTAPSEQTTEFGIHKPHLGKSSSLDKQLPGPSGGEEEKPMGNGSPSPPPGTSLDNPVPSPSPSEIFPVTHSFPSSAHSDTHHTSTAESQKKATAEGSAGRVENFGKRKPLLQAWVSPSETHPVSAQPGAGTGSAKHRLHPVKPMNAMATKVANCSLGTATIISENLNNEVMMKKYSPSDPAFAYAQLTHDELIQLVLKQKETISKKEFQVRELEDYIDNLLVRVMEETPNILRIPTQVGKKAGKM
UniProt O60518: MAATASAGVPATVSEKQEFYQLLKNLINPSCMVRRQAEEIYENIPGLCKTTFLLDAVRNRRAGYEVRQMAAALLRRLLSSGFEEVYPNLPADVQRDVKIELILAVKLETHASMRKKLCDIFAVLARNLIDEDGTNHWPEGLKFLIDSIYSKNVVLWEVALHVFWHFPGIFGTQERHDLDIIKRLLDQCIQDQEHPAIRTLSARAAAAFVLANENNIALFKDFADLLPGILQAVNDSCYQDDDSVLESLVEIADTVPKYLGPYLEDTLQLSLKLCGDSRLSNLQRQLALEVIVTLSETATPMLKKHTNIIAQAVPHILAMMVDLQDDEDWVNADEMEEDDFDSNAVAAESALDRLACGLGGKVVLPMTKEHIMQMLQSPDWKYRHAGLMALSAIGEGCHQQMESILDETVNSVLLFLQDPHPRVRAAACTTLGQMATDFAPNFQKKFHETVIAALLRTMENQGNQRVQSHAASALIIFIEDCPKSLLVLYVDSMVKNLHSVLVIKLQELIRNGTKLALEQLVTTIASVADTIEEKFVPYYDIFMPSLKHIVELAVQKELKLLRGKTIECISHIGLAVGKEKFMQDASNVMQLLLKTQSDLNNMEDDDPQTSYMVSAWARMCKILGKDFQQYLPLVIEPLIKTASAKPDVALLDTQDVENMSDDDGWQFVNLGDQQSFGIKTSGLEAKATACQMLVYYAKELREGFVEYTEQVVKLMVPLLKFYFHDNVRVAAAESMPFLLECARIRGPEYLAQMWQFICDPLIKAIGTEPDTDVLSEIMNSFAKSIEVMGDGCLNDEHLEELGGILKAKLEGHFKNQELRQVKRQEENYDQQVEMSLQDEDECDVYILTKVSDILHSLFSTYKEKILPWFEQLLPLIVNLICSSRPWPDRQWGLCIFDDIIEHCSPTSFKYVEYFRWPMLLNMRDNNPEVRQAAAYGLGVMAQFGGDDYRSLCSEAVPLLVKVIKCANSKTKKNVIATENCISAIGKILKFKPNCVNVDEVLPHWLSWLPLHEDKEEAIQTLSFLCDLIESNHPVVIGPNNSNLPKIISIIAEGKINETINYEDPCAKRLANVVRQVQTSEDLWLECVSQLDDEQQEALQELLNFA
UniProt Q6ZRP7: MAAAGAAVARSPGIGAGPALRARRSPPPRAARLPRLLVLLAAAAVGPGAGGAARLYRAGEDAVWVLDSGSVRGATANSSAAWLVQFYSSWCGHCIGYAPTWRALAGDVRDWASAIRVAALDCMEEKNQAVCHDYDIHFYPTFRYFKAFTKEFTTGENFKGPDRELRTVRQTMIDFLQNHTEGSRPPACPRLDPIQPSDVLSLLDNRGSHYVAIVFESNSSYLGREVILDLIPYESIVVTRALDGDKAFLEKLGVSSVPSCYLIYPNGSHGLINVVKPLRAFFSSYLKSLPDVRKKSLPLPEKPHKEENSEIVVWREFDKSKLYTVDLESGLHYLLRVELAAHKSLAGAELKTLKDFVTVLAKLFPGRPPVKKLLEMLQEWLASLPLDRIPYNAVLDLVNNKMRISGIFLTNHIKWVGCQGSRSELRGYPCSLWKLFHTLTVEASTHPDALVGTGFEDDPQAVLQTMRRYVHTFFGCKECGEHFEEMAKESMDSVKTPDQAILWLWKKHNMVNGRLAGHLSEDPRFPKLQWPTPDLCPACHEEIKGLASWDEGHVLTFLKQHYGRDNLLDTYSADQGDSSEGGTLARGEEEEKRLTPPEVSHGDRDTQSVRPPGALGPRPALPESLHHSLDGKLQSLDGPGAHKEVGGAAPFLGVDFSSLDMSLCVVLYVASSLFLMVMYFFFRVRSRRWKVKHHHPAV
UniProt Q9ULZ3, whole entry, looked up: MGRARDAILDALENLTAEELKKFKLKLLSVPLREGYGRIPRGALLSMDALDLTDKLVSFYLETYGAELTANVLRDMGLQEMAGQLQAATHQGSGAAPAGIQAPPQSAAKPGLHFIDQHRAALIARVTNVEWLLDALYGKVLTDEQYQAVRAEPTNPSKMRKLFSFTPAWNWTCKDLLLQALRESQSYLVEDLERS
UniProt Q9NR77: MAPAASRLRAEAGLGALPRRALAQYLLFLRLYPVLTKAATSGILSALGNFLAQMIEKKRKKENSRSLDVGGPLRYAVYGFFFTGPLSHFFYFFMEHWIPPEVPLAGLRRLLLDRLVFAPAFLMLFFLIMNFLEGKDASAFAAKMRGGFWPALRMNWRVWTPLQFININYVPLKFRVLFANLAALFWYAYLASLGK
UniProt Q13905: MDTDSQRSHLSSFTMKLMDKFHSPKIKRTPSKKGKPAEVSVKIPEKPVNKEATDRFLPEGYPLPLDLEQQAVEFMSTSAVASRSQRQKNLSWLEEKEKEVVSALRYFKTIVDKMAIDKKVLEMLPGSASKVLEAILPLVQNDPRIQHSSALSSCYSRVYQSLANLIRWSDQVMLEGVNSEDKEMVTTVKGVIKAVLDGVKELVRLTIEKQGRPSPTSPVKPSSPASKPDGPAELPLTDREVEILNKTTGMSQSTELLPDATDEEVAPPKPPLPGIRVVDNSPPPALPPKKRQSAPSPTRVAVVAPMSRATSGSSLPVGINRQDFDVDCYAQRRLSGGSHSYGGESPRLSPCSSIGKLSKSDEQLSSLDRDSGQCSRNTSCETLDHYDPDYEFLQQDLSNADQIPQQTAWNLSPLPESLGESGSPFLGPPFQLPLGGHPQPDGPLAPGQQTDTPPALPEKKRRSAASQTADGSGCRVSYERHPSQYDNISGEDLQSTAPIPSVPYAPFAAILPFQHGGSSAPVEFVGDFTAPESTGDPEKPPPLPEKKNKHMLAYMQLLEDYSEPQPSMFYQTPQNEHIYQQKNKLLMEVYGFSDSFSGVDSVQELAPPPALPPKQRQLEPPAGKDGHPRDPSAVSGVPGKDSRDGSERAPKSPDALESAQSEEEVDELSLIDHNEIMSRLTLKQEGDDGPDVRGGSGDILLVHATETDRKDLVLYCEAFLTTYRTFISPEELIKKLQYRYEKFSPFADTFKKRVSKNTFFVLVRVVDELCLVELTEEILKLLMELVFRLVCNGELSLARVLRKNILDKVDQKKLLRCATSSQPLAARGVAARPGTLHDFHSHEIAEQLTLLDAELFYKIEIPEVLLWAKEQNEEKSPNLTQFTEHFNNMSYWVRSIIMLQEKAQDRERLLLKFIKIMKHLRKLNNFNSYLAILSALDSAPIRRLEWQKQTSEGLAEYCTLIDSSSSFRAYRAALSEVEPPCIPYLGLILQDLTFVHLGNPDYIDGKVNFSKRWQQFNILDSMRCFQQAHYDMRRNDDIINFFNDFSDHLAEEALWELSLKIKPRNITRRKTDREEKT

Legend:
Assay in all cases: log2 fold change, soluble protein after heating vs DMSO (PISA); higher = thermal stabilisation; K562 lysate, 10 uM; active = over 0.2 and 3.5 SD of the protein, either way, in both replicates (recomputed)
vemurafenib = compound: CCCS(=O)(=O)Nc1ccc(F)c(C(=O)c2c[nH]c3ncc(-c4ccc(Cl)cc4)cc23)c1F [vemurafenib]
Procedure, shortened: (§1)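 Thermal stability, expressed as log-two fold change relative to solvent controls, is given from duplicates. Crude K562 extract in PBS pH 7.4 with 1 mM MgCl2, at 1 mg/mL protein, was treated with 10 μM compound for 30 min and heated in aliquots for 3 min across 48°C-58°C. After pooling, adjustment to 0.5% NP-40 at 4°C and centrifugation at 21,000xg for 90 min, supernatant protein was measured by TMTpro 16plex LC-MS/MS with channel sums equalised.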

[1] = compound: CCCS(=O)(=O)Nc1ccc(F)c(C(=O)c2c[nH]c3ncc(Cl)cc23)c1F
Procedure, shortened: as §1

barasertib = compound: CCN(CCCOc1ccc2c(Nc3cc(CC(=O)Nc4cccc(F)c4)[nH]n3)ncnc2c1)CCOP(=O)(O)O [barasertib]
Procedure, shortened: as §1

[2] = compound: CC[C@@H]1C(=O)N(C)c2cnc(Nc3ccc(C(=O)NC4CCN(C)CC4)cc3OC)nc2N1C1CCCC1
Procedure, shortened: as §1

volasertib = compound: CC[C@@H]1C(=O)N(C)c2cnc(Nc3ccc(C(=O)N[C@H]4CC[C@H](N5CCN(CC6CC6)CC5)CC4)cc3OC)nc2N1C(C)C [volasertib]
Procedure, shortened: as §1

[3] = compound: CCn1c(C(=O)N(C2CC2)C2CC2)cc2c3c(ncn3C)c(Nc3cc(C)n(C)n3)nc21
Procedure, shortened: as §1

[4] = compound: CCn1cc(-c2ccnc3[nH]c(-c4cccc(CN(C)C)c4)cc23)c(-c2ccc(NC(=O)N(C)C)cc2)n1
Procedure, shortened: as §1

[5] = compound: CN1CCC(CNc2ccc3ncc(-c4cccc(OC(F)(F)F)c4)n3n2)CC1
Procedure, shortened: as §1

saracatinib = compound: CN1CCN(CCOc2cc(OC3CCOCC3)c3c(Nc4c(Cl)ccc5c4OCO5)ncnc3c2)CC1 [saracatinib]
Procedure, shortened: as §1

sotrastaurin = compound: CN1CCN(c2nc(C3=C(c4c[nH]c5ccccc45)C(=O)NC3=O)c3ccccc3n2)CC1 [sotrastaurin]
Procedure, shortened: as §1

Measured: log2 fold change

PYROXD1 (UniProt Q8WU10)
inactive: vemurafenib 0.011 | [1] 0.068 | barasertib 0.076 | [2] 0.044 | volasertib -0.098 | [3] -0.011 | [4] 0.1 | [5] 0.249 | saracatinib 0.017 | sotrastaurin -0.014

RAP1A (UniProt P62834)
inactive: vemurafenib -0.002 | [1] -0.017 | barasertib 0.041 | [2] 0.019 | volasertib 0.009 | [3] -0.008 | [4] -0.092 | [5] 0.029 | saracatinib -0.017 | sotrastaurin -0.006

QTRT2 isoform 4 (UniProt Q9H974)
inactive: vemurafenib 0.003 | [1] 0.012 | barasertib 0.004 | [2] -0.022 | volasertib 0.036 | [3] -0.035 | saracatinib 0.016 | sotrastaurin 0.013
active: [4] -0.318 | [5] 0.227

RAB10 (UniProt P61026)
inactive: vemurafenib -0.024 | [1] -0.014 | barasertib 0.04 | [2] 0.038 | volasertib -0.001 | [3] -0.037 | [4] -0.016 | [5] 0.031 | saracatinib 0.02 | sotrastaurin 0.074

RAB35 (UniProt Q15286)
inactive: vemurafenib -0.063 | [1] -0.01 | barasertib 0.005 | [2] 0.034 | volasertib -0.034 | [3] 0.028 | [4] -0.011 | [5] 0.064 | saracatinib -0.027 | sotrastaurin -0.004

RAPGEF2, A0A2R8YGD3
inactive: vemurafenib 0 | [1] 0.013 | barasertib 0.144 | [2] 0.093 | volasertib -0.015 | [3] -0.029 | [4] 0.325 | [5] 0.05 | saracatinib 0.01 | sotrastaurin -0.003

RAB9A (UniProt P51151)
inactive: vemurafenib -0.024 | [1] 0.008 | barasertib -0.006 | [2] 0.019 | volasertib -0.033 | [3] -0.029 | [4] -0.015 | [5] -0.011 | saracatinib 0.032 | sotrastaurin 0.036

Fetched one by one from the list above, two records:
QTRT2 isoform 4 (UniProt Q9H974)
inactive: vemurafenib 0.003 | [1] 0.012 | barasertib 0.004 | [2] -0.022 | volasertib 0.036 | [3] -0.035 | saracatinib 0.016 | sotrastaurin 0.013
active: [4] -0.318 | [5] 0.227

RAB35 (UniProt Q15286)
inactive: vemurafenib -0.063 | [1] -0.01 | barasertib 0.005 | [2] 0.034 | volasertib -0.034 | [3] 0.028 | [4] -0.011 | [5] 0.064 | saracatinib -0.027 | sotrastaurin -0.004

Later entries

RAB3IP (UniProt Q96QF0)
inactive: vemurafenib -0.026 | [1] 0.096 | barasertib 0.002 | [2] 0.013 | volasertib -0.013 | [3] 0.001 | [4] 0.019 | [5] 0.033 | saracatinib 0.029 | sotrastaurin -0.015

RAB24 (UniProt Q969Q5)
inactive: vemurafenib 0.043 | [1] 0.028 | barasertib -0.008 | [2] 0.077 | volasertib 0.048 | [3] 0.013 | [4] 0.005 | [5] 0.019 | saracatinib 0.036 | sotrastaurin 0.024

RANGAP1 (UniProt P46060)
inactive: vemurafenib -0.019 | [1] 0.015 | barasertib 0.005 | [2] -0.039 | volasertib -0.021 | [3] 0.002 | [4] -0.008 | [5] -0.033 | saracatinib 0.013 | sotrastaurin -0.008

RABGGTB (UniProt P53611)
inactive: vemurafenib -0.022 | [1] 0.058 | barasertib 0.096 | [2] -0.034 | volasertib 0.008 | [3] -0.031 | [4] 0.151 | [5] -0.033 | saracatinib -0.017 | sotrastaurin 0.037

RABGAP1L isoform 5 (UniProt Q5R372)
inactive: vemurafenib 0.017 | [1] -0.027 | barasertib 0.036 | [2] 0.058 | volasertib 0.015 | [3] -0.074 | [4] 0.066 | [5] -0.073 | saracatinib 0.014 | sotrastaurin 0.078

PYCR2 (UniProt Q96C36)
inactive: vemurafenib 0.004 | [1] -0.005 | barasertib 0.006 | [2] 0.036 | volasertib 0.016 | [3] -0.001 | [4] 0.099 | [5] 0.012 | saracatinib -0.012 | sotrastaurin -0.014

R3HDM1 isoform 3 (UniProt Q15032)
inactive: vemurafenib 0.114 | [1] -0.118 | barasertib 0.106 | [2] 0.059 | volasertib 0.024 | [3] 0.041 | [4] 0.219 | [5] 0.052 | saracatinib -0.037 | sotrastaurin 0.064

RABIF (UniProt P47224)
inactive: vemurafenib 0.02 | [1] -0.013 | barasertib 0.043 | [2] 0.031 | volasertib 0.004 | [3] 0.047 | [4] -0.072 | [5] -0.062 | saracatinib -0.022 | sotrastaurin -0.008

RAD23A (UniProt P54725)
inactive: vemurafenib -0.019 | [1] -0.016 | barasertib 0.131 | [2] 0.037 | volasertib 0.018 | [3] 0.028 | [4] -0.018 | [5] 0.032 | saracatinib 0.004 | sotrastaurin 0.006

RAP2B (UniProt P61225)
inactive: vemurafenib 0.014 | [1] 0.032 | barasertib 0.104 | [2] 0.031 | volasertib 0.023 | [3] 0.069 | [4] -0.079 | [5] -0.049 | saracatinib 0.088 | sotrastaurin -0.012

RAB11FIP1 (UniProt Q6WKZ4)
inactive: vemurafenib -0.003 | [1] 0.013 | barasertib 0.011 | [2] 0.055 | volasertib -0.033 | [3] 0.01 | [4] 0.033 | [5] -0.091 | saracatinib 0.033 | sotrastaurin 0.023

RAD1 (UniProt O60671)
inactive: vemurafenib 0.031 | [1] 0.022 | barasertib -0.064 | [2] -0.035 | volasertib 0.016 | [3] 0.038 | [4] -0.017 | [5] 0.059 | saracatinib 0.025 | sotrastaurin -0.006

RANBP6 (UniProt O60518)
inactive: vemurafenib 0.008 | [1] 0.025 | barasertib 0.013 | [2] -0.016 | volasertib 0.013 | [3] 0.068 | [4] -0.045 | [5] 0.06 | saracatinib -0.038 | sotrastaurin 0.002

QSOX2 (UniProt Q6ZRP7)
inactive: vemurafenib 0.027 | [1] 0.015 | barasertib 0.031 | [2] 0.019 | volasertib 0.012 | [3] -0.018 | [4] -0.11 | [5] 0.061 | saracatinib 0.05 | sotrastaurin -0.042

RAPGEF4 (UniProt Q8WZA2)
active: [4] -0.887
inactive: vemurafenib 0.157 | [1] 0.077 | barasertib 0.022 | [2] 0.174 | volasertib 0.049 | [3] -0.259 | [5] 0.391 | saracatinib 0.037 | sotrastaurin 0.001

RALBP1 (UniProt Q15311)
inactive: vemurafenib -0.027 | [1] 0.01 | barasertib 0.108 | [2] 0.016 | volasertib 0.005 | [3] -0.002 | [4] -0.015 | [5] -0.004 | saracatinib 0.028 | sotrastaurin 0.038

RAB1A (UniProt P62820)
inactive: vemurafenib -0.025 | [1] -0.016 | barasertib 0.019 | [2] 0.001 | volasertib -0.002 | [3] 0.01 | [4] 0.062 | [5] -0.033 | saracatinib -0.018 | sotrastaurin 0.023

PYCARD (UniProt Q9ULZ3)
inactive: vemurafenib 0.038 | [1] 0.004 | barasertib 0.067 | [2] 0.036 | volasertib -0.016 | [3] -0.015 | [4] -0.092 | [5] 0.071 | saracatinib -0.084 | sotrastaurin -0.018

PXMP2 (UniProt Q9NR77)
inactive: vemurafenib 0.006 | [1] 0.016 | barasertib 0.1 | [2] 0.071 | volasertib 0.038 | [3] 0.045 | [4] -0.136 | [5] 0.017 | saracatinib -0.027 | sotrastaurin 0.027

RAD51C (UniProt O43502)
inactive: vemurafenib -0.067 | [1] -0.01 | barasertib -0.011 | [2] -0.017 | volasertib 0.046 | [3] -0.038 | [4] -0.027 | [5] 0.027 | saracatinib 0.01 | sotrastaurin 0.027

RAPGEF1 isoform 3 (UniProt Q13905)
inactive: vemurafenib -0.02 | [1] 0.055 | barasertib -0.07 | [2] -0.041 | volasertib -0.029 | [3] -0.044 | [4] 0.074 | [5] -0.069 | saracatinib -0.028 | sotrastaurin 0.06

RAP2A (UniProt P10114)
inactive: vemurafenib -0.027 | [1] -0.008 | barasertib 0.059 | [2] -0.053 | volasertib -0.012 | [3] -0.025 | [4] 0.026 | [5] 0.003 | saracatinib 0.026 | sotrastaurin 0.008

QPCTL (UniProt Q9NXS2)
inactive: vemurafenib 0 | [1] -0.075 | barasertib -0.016 | [2] 0.055 | volasertib -0.023 | [3] -0.018 | [4] -0.018 | [5] -0.032 | saracatinib -0.002 | sotrastaurin -0.033
